No constants are given. Whether binding was seen depends on the method and setting. Binding can be weak; no strength is given.

Amino acid sequences for entries named in this document (tags omitted). A change or cut given only in a name is not applied to a line headed by its entry.
UniProt P19793: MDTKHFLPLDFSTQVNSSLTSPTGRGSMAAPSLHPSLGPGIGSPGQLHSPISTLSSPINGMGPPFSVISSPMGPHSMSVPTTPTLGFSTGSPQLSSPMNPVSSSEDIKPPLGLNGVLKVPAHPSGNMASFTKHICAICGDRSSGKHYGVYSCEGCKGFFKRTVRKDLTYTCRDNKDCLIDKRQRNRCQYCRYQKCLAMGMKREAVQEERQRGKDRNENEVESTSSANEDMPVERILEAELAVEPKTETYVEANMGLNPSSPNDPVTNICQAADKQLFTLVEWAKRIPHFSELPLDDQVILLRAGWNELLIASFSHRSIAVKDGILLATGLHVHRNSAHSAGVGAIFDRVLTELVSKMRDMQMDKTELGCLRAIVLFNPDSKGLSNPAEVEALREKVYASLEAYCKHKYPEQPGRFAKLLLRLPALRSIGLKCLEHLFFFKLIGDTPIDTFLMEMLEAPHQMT

This assay has as its target T1, vitamin D receptor (VDR) (UniProt P11473).
T1 sequence: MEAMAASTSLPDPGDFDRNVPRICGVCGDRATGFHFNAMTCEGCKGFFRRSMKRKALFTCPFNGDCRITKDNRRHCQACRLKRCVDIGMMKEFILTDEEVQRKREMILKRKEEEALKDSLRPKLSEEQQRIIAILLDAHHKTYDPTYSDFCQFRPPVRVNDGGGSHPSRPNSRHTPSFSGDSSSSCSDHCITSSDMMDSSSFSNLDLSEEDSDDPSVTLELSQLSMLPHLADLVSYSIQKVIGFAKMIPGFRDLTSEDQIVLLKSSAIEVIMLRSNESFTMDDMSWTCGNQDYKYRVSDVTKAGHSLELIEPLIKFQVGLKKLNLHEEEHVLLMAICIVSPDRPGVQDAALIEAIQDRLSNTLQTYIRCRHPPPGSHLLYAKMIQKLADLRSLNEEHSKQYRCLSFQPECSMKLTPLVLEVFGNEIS
The experiment in a line: mammalian two-hybrid in PC-3 cells, GAL4-RXRα + VP16-VDR.

On to “RXRα (GAL4-RXRα) (from UniProt P19793) (receptor)”, for which the binding entry was “binds”.

Source of the values: patent US20080050387A1, “Non-Androgen Dependent Roles for Androgen Receptor and Non-Androgen Related Inhibitors of Androgen Receptor” (priority 2003, published 2008).
